Values quoted from earlier work, collected in US5859067A, “Use of natural products and related synthetic compounds for the treatment of cardiovascular disease” (priority 1993, dated 1999).
At least one structure is not confirmed: it was looked up by name or label, or the drawing left a doubt.

Sequences of proteins named here, by UniProt entry; tags and fusion partners are left off. Residues count along the entry.
UniProt P23634, 1-1205 isoform P23634-6: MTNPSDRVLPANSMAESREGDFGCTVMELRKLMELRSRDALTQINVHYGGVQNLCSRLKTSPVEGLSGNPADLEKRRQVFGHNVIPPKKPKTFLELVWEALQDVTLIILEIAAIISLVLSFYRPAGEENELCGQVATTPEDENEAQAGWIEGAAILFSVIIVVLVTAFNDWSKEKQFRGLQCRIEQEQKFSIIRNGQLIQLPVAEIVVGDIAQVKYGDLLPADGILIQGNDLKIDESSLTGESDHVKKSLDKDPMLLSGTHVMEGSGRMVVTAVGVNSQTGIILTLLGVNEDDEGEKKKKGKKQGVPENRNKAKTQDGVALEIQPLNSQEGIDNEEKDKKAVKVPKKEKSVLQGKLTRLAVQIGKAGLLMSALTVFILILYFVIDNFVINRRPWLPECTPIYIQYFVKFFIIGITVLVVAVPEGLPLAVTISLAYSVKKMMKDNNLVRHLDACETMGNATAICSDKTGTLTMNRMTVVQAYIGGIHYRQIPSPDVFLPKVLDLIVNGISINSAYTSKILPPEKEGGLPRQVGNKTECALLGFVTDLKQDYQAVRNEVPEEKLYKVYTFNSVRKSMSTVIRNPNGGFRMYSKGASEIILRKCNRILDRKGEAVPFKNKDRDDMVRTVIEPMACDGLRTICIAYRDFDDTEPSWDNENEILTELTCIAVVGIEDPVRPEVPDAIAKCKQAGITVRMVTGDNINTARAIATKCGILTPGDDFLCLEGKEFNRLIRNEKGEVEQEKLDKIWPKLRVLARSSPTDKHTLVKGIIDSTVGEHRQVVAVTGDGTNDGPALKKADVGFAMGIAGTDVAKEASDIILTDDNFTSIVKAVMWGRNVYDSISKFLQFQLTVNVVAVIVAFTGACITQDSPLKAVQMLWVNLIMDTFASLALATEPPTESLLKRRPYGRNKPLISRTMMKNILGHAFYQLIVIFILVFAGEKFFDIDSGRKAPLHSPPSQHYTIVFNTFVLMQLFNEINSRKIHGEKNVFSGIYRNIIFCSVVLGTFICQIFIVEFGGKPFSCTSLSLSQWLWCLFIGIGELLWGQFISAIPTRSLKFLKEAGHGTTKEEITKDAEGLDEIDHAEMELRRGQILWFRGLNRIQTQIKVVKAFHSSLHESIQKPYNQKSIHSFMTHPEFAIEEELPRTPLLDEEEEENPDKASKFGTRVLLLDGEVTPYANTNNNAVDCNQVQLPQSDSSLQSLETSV

Biological target: T1, human erythrocyte plasma membrane Ca^2+ -ATPase (Homo sapiens, UniProt P23634)
T1 construct: Calmodulin-depleted erythrocyte membranes were prepared by continuous filtration through a hollow fibre; tissue New South Wales Red Cross Transfusion Service, Sydney; host or cells: human packed red blood cells (calmodulin-depleted erythrocyte membranes)
Conditions: 25 μM; as shown by Minocherhomjee and Roufogalis (1982); cited from earlier work

[N-]=[N+]=Nc1ccc(NCCS(=O)(=O)O)c([N+](=O)[O-])c1 [NAP-taurine, N-(4-azido-2-nitrophenyl)-2-aminoethylsulfonate]
inhibition of the enzyme: 60%
